# Drug screen on melanoma cell lines: apoptosis marker

Source: doi:10.1371/journal.pone.0140310, primary screening data, rounded.

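Human melanoma cell lines in 1,536-well plates were treated with a pair of drugs for 72 h, then fixed, stained and imaged. Values are the share of nuclei positive for cleaved PARP as a percentage of the same share in the DMSO control: 100 is the control level, higher means more apoptosis. Every drug was used at one fixed concentration, the higher of two screened. These are primary screening values without error estimates. Basal and induced levels differ widely between cell lines.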
Only some of the drugs and lines screened are listed, without regard to their results.
An entry leaves out what has no value listed here.
A dash means that no value is listed here.

Compounds and concentrations:
BI-78D3 (1000 nM): O=c1[nH]nc(Sc2ncc([N+](=O)[O-])s2)n1-c1ccc2c(c1)OCCO2
embelin (6000 nM): CCCCCCCCCCCC1=C(O)C(=O)C=C(O)C1=O
T0901317 (7000 nM): O=S(=O)(c1ccccc1)N(CC(F)(F)F)c1ccc(C(O)(C(F)(F)F)C(F)(F)F)cc1
MK-2206 (2000 nM): NC1(c2ccc(-c3nc4ccn5c(=O)[nH]nc5c4cc3-c3ccccc3)cc2)CCC1
dorsomorphin (2000 nM): c1cc(-c2cnn3cc(-c4ccc(OCCN5CCCCC5)cc4)cnc23)ccn1
VX-702 (2000 nM): NC(=O)c1ccc(N(C(N)=O)c2c(F)cccc2F)nc1-c1ccc(F)cc1F
AS-252424 (5000 nM): O=C1NC(=O)/C(=C/c2ccc(-c3ccc(F)cc3O)o2)S1
cediranib (2000 nM): COc1cc2c(Oc3ccc4[nH]c(C)cc4c3F)ncnc2cc1OCCCN1CCCC1
vismodegib (5000 nM): CS(=O)(=O)c1ccc(C(=O)Nc2ccc(Cl)c(-c3ccccn3)c2)c(Cl)c1

| Combination | IPC-298 | A2058 | SK-MEL-5 | A375 | WM3619 | WM3526 |
|---|---|---|---|---|---|---|
| embelin + cediranib | 49.5 | 53.8 | 27.9 | 51.0 | 92.7 | 112 |
| T0901317 + BI-78D3 | 92.9 | 110 | 141 | 95.4 | 125 | 105 |
| T0901317 + VX-702 | 191 | 69.3 | 191 | 135 | 73.1 | 95.9 |
| dorsomorphin + vismodegib | 96.0 | 293 | 99.7 | 59.6 | 136 | 72.3 |
| vismodegib + VX-702 | 92.6 | 77.2 | 37.3 | 46.5 | 89.4 | 62.0 |
| dorsomorphin + cediranib | 47.3 | 230 | 125 | 69.2 | 123 | 121 |
| BI-78D3 + AS-252424 | 35.0 | 119 | 62.7 | 62.8 | 120 | 115 |
| embelin + dorsomorphin | 89.2 | 254 | 112 | 93.1 | 127 | 73.3 |
| BI-78D3 + VX-702 | 156 | 131 | 168 | 57.7 | 107 | 86.4 |
| T0901317 + embelin | 29.4 | 109 | 99.0 | 29.0 | 121 | 19.4 |
| T0901317 + MK-2206 | 139 | 53.4 | 201 | 80.7 | 169 | 159 |
| T0901317 + AS-252424 | 56.1 | 119 | 77.3 | 112 | 169 | 58.4 |
| AS-252424 + MK-2206 | 24.4 | 84.2 | 176 | 102 | 152 | 168 |
| MK-2206 + VX-702 | 46.5 | 124 | 120 | 91.6 | 98.5 | 184 |
| vismodegib + MK-2206 | 164 | 130 | 76.9 | 26.2 | 88.9 | 107 |
| cediranib + T0901317 | 51.2 | 61.9 | 197 | 36.3 | 101 | 95.6 |
| MK-2206 + embelin | 52.4 | 41.5 | 45.9 | 28.3 | 110 | 183 |
| MK-2206 + dorsomorphin | 35.5 | 213 | 299 | 58.5 | 272 | 194 |
| T0901317 + vismodegib | 108 | 53.4 | 169 | 49.1 | 85.7 | 129 |
| AS-252424 + cediranib | 218 | 85.3 | 110 | 43.9 | 122 | 120 |
| embelin + vismodegib | 148 | 85.3 | 202 | 64.7 | 116 | 77.2 |
| vismodegib + cediranib | 32.9 | 44.6 | 138 | - | 84.7 | 95.1 |
| AS-252424 + VX-702 | 46.1 | 172 | 126 | 36.0 | 124 | 115 |
| AS-252424 + vismodegib | 57.2 | 152 | 184 | 45.3 | 125 | 188 |
| BI-78D3 + cediranib | 35.5 | 87.0 | 48.1 | - | 102 | 51.6 |
| VX-702 + cediranib | 108 | 60.3 | 95.2 | - | 116 | 126 |
| vismodegib + BI-78D3 | 155 | 84.9 | 52.9 | 43.8 | 90.1 | 57.9 |
| MK-2206 + cediranib | 64.8 | 94.3 | 78.9 | - | 102 | 45.8 |
| dorsomorphin + VX-702 | 67.0 | 251 | 128 | 78.5 | 100 | 70.0 |
| embelin + AS-252424 | 67.5 | 124 | 131 | 51.8 | 107 | 54.6 |
| embelin + VX-702 | 33.1 | 110 | 85.8 | 80.4 | 91.2 | 77.7 |
| dorsomorphin + T0901317 | 28.7 | 532 | 248 | 155 | 151 | 137 |
| BI-78D3 + dorsomorphin | 88.5 | 205 | 85.7 | 94.6 | 119 | 223 |
| BI-78D3 + embelin | 79.2 | 84.8 | 23.7 | 144 | 153 | 152 |
| BI-78D3 + MK-2206 | 107 | 101 | 116 | 125 | 113 | 127 |
| AS-252424 + dorsomorphin | 65.6 | 139 | 113 | 47.5 | 101 | 94.8 |

Some entries from above, unchanged:

{"combination": "T0901317 + BI-78D3", "IPC-298": 92.9, "A2058": 110, "SK-MEL-5": 141, "A375": 95.4, "WM3619": 125, "WM3526": 105}
{"combination": "embelin + cediranib", "IPC-298": 49.5, "A2058": 53.8, "SK-MEL-5": 27.9, "A375": 51.0, "WM3619": 92.7, "WM3526": 112}
{"combination": "AS-252424 + cediranib", "IPC-298": 218, "A2058": 85.3, "SK-MEL-5": 110, "A375": 43.9, "WM3619": 122, "WM3526": 120}
{"combination": "embelin + dorsomorphin", "IPC-298": 89.2, "A2058": 254, "SK-MEL-5": 112, "A375": 93.1, "WM3619": 127, "WM3526": 73.3}